Among the data in PMC5358835 are binding values, retold here.

Sequences of proteins named here, by UniProt entry; tags and fusion partners are left off.
UniProt Q8CIG8: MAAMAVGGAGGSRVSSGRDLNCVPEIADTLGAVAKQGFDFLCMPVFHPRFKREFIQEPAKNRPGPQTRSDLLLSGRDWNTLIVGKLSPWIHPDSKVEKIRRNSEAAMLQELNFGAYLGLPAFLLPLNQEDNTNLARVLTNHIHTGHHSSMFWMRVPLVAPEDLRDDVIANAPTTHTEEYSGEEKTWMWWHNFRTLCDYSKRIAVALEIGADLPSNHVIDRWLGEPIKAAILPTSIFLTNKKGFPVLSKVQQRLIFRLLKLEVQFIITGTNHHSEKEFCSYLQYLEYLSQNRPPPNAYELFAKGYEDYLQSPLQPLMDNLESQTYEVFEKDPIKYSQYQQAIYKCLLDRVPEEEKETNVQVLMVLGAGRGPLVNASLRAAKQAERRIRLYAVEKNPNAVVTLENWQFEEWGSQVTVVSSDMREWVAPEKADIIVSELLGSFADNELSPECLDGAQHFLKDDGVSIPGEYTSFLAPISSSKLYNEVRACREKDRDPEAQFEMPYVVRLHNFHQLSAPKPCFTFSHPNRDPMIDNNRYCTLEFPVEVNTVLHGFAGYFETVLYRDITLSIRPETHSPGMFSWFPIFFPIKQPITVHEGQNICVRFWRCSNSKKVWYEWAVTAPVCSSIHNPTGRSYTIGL
UniProt P61407: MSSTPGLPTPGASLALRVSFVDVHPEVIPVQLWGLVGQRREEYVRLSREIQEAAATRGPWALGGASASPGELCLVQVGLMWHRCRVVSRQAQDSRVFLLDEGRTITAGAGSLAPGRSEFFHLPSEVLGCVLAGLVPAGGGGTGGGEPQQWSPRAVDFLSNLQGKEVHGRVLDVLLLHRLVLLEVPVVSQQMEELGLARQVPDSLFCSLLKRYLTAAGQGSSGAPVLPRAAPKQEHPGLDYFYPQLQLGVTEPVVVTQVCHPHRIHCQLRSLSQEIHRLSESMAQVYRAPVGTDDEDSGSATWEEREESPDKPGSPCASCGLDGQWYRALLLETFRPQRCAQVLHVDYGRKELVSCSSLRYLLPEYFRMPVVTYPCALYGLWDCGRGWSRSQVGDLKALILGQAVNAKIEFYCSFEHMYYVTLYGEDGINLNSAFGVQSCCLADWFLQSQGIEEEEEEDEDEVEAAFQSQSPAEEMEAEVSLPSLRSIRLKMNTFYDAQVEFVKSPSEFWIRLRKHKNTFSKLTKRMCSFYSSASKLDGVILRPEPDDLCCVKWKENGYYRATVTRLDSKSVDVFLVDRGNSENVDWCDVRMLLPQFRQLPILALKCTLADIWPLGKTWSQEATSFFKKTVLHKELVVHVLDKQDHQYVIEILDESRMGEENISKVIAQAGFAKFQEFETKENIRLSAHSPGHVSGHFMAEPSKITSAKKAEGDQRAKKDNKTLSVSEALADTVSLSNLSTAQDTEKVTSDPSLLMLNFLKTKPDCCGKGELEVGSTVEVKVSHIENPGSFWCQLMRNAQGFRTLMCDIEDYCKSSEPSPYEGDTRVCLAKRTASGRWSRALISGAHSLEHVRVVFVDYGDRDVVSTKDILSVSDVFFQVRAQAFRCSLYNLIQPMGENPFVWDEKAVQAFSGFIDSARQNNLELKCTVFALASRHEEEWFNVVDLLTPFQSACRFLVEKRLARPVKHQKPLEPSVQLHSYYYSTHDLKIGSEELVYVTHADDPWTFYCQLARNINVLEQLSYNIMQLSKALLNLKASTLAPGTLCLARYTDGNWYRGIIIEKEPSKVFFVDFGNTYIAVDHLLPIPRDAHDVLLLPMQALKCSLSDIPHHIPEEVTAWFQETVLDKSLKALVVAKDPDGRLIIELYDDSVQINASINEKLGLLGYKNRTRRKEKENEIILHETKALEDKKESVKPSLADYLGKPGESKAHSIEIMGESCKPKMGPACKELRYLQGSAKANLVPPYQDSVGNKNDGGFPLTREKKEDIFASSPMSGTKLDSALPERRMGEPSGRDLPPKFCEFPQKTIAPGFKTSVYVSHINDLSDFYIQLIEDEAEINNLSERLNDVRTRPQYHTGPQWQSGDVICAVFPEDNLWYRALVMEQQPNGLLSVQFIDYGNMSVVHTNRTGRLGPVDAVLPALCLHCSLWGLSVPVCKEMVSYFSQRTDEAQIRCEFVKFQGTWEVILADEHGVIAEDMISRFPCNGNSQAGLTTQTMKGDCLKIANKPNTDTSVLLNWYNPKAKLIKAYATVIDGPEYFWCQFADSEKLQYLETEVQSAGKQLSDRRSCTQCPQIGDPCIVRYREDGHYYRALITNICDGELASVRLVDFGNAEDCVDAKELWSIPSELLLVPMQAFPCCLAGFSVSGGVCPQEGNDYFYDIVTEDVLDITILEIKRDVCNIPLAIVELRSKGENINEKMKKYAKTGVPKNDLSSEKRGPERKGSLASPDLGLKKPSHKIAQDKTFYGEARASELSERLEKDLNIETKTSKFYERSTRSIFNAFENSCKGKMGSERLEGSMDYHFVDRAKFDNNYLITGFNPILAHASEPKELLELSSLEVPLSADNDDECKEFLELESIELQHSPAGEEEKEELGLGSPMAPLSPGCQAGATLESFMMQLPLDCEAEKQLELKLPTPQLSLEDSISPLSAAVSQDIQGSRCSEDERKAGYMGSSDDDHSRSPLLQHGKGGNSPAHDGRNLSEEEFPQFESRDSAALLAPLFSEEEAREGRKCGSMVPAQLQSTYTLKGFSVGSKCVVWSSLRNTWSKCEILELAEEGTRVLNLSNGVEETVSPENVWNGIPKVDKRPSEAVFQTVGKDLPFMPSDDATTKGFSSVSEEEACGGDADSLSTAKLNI

These are yes or no findings as the source states them, for the method shown. Binding seen in cells or lysates may run through a third protein. Some entries that bind do so weakly or less than the wild type.

The target in this experiment is protein arginine methyltransferase 5 (PRMT5) (mouse (endogenous in testis)) (UniProt Q8CIG8). Put plainly: co-IP; α-EGFP or α-PRMT5 IgG; total cell extracts of adult testis cells fixed in 1% formaldehyde for 5 min; immunoblot with α-EGFP and α-PRMT5. For orientation: A western blot detects proteins with antibodies after separation by electrophoresis.

For the substance “LAP-tagged TDRD6 (Tudor containing protein 6) (from UniProt P61407 1-2134)”, the binding entry was “binds”.
